The structures given here were assigned with low confidence; some may be wrong.
Biological target: Src recombinant enzyme, N-terminally His6 tagged full-length human protein (Homo sapiens, UniProt P12931)
Assay: SRC kinase inhibition assay (AlphaScreen)
Format: biochemical
Details: read-out: IC50 (SRC); 80 μM ATP, 90 minutes at 30 degree Celsius; tested form: HBr

Protein sequences, listed by entry. Tags and fused reporters are not part of them.
UniProt P12931, whole entry: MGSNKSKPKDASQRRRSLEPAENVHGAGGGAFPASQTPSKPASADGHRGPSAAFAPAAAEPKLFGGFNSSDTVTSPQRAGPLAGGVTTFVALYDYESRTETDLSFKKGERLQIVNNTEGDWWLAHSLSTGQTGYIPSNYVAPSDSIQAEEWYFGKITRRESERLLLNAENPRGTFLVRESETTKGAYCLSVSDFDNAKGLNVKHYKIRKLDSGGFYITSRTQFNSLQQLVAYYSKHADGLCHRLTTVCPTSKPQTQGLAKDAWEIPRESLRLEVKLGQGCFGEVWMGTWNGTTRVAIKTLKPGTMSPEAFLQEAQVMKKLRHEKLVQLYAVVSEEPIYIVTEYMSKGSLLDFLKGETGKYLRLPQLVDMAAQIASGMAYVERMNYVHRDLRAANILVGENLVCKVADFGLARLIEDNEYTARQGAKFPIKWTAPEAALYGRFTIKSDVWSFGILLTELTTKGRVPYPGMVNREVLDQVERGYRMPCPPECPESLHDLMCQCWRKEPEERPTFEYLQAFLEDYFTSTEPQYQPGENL

CC(C)(CN)n1nc(-c2ccc(Cl)cc2)c2c(N)ncnc21
IC50: 100 to 1000 nM

Source: patent publication US8962830B2, “Protein kinase inhibitors and methods of treatment” (The Walter and Eliza Hall Institute of Medical Research, priority 2010, dated 2015)
